The series in a line: Circulating hormone levels in hemolymph over ecdysis and post-molt. The format is in vivo, Carcinus maenas. The conditions noted are these: endogenous peptide.

With “pQIRYHQCYFNPISCF (disulfide) [AST-C, allatostatin-C, C. maenas AST-C family neuropeptide with C-terminal PISCF motif; synthetic (GenScript)]”, under “RIA”, the “Time after ecdysis at which hemolymph levels became almost undetectable” value is reported as at most 24 h and the “Time after ecdysis at which hemolymph levels diminished to basal values” is on record as at most 2 h. For the setting “within 1 h of completion of ecdysis”, the “Hemolymph level as % of the peak value at E100” value is reported as “around 20%”.

Values taken from paper PMC11959706, “Allatostatin-C signaling in the crab Carcinus maenas is implicated in the ecdysis program” (The Journal of Experimental Biology, 2025).
